Values from PubChem BioAssay AID686938 (Drosophila RNAi Screening Center, 2013)
Purpose: 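Knock-downs reducing store-operated calcium influx in Drosophila cells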 (primary screen). Cell system: Drosophila S2R+ cells. Reagent: long dsRNA against Drosophila genes, about 0.25 µg dsRNA per well, roughly 10,000 cells. Time to read-out: 5 days of knock-down before the calcium assay. Conditions: thapsigargin (SERCA pump blocker) to empty calcium stores; entry signal taken 4 min after adding it. Measurement: 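Duplicate raw fluo-4 intensities per well from a plate reader, at rest and four minutes after thapsigargin emptied calcium stores; entry-to-rest ratio filled for only some wells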. Scale: calcium entry signal: higher = stronger calcium signal after store depletion; resting calcium signal: higher = higher resting calcium signal. Rule for the call: 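Hit if the duplicate-averaged plate z-score for entry over resting signal is under −3; wells with weak total dye signal (Fmax z < −2) or more than 5 off-targets removed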. Meaning of the calls: active = strongly reduced calcium entry; inactive = no strong reduction.
The deposit covers about 23,000 reagents; below is a random part of those with a known target gene and a result. Over the whole deposit, 75 (0.33%) got an active call. 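Raw plate signals without normalisation; calls rest on plate z-scores that were not deposited; ratio present for only 364 wells.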 Names joined by + are all predicted targets of the reagent. The record does not give: the dose of the treatment.

no.	Gene	amplicon	calcium entry signal, replicate 1 (fluorescence units)	calcium entry signal, replicate 2 (fluorescence units)	resting calcium signal, replicate 1 (fluorescence units)	resting calcium signal, replicate 2 (fluorescence units)	call
1	Cpr30B (GeneID 34270)	DRSC02728	3.21e7	4.80e7	1.49e7	2.01e7	inactive
2	CG12679 (GeneID 33031)	DRSC20493	5.77e7	4.58e7	2.64e7	1.80e7	inactive
3	Task6 (GeneID 41671)	DRSC16530	3.11e7	5.94e7	1.59e7	6.60e7	inactive
4	Nrd1 (GeneID 32143)	DRSC19830	2.38e7	3.09e7	1.29e7	1.50e7	inactive
5	ARY (retired record) (GeneID 3355076)	DRSC20867	3.65e7	3.76e7	1.73e7	1.85e7	inactive
6	Oatp26F (GeneID 33927)	DRSC02149	2.48e7	2.70e7	1.23e7	1.20e7	inactive
7	Oatp26F (GeneID 33927)	DRSC02272	2.54e7	2.23e7	1.21e7	1.16e7	inactive
8	Oatp26F (GeneID 33927)	DRSC02695	2.19e7	2.34e7	1.14e7	1.12e7	inactive
9	CG32017 (GeneID 317823)	DRSC17183	5.76e7	3.34e7	2.66e7	1.46e7	inactive
10	AttA (GeneID 36636)	DRSC05926	4.94e7	4.33e7	1.83e7	1.97e7	inactive
11	Mur82C (GeneID 40574)	DRSC12011	3.23e7	4.84e7	1.72e7	2.20e7	inactive
12	Mur82C (GeneID 40574)	DRSC12212	2.71e7	1.97e7	1.46e7	1.10e7	inactive
13	CG43132 (retired record) (GeneID 12797985)	DRSC19484	3.16e7	3.73e7	1.64e7	1.63e7	inactive
14	CG9386 (GeneID 41148)	DRSC16485	3.10e7	3.64e7	1.50e7	1.77e7	inactive

Taken from above:
Oatp26F (GeneID 33927) [DRSC02149], resting calcium signal, replicate 1 (fluorescence units): 1.23e7
Task6 (GeneID 41671) [DRSC16530], calcium entry signal, replicate 1 (fluorescence units) = 3.11e7
For “call”, Oatp26F (GeneID 33927) [DRSC02272] shows inactive
Entry of Oatp26F (GeneID 33927) [DRSC02695] under “resting calcium signal, replicate 1 (fluorescence units)”: 1.14e7

The listing continues.
no.	Gene	amplicon	calcium entry signal, replicate 1 (fluorescence units)	calcium entry signal, replicate 2 (fluorescence units)	resting calcium signal, replicate 1 (fluorescence units)	resting calcium signal, replicate 2 (fluorescence units)	call
15	WRNexo (GeneID 42208)	DRSC16278	4.83e7	4.35e7	2.19e7	1.81e7	inactive
16	Scsalpha2 (GeneID 42326)	DRSC16003	3.44e7	2.69e7	1.71e7	1.32e7	inactive
17	AP-1-2beta (GeneID 32987)	DRSC19336	4.26e7	3.86e7	1.97e7	1.60e7	inactive
18	Ocho (GeneID 39621)	DRSC11239	4.09e7	6.18e7	2.08e7	2.54e7	inactive
19	Rbcn-3A (GeneID 31557)	DRSC18314	3.37e7	4.43e7	2.28e7	2.97e7	inactive
20	Patronin (GeneID 36978)	DRSC06756	4.83e7	3.77e7	1.76e7	1.80e7	inactive
21	Patronin (GeneID 36978)	DRSC06757	4.81e7	6.61e7	2.18e7	2.96e7	inactive
22	Patronin (GeneID 36978)	DRSC06994	4.69e7	6.53e7	2.03e7	2.98e7	inactive
23	Vta1 (GeneID 38204)	DRSC08604	3.81e7	7.64e7	2.00e7	3.40e7	inactive
24	Vta1 (GeneID 38204)	DRSC22848	2.57e7	3.14e7	1.24e7	1.45e7	inactive
25	Peritrophin-15b (GeneID 50432)	DRSC02266	4.13e7	5.74e7	2.00e7	2.43e7	inactive
26	Mal-A7 (GeneID 35829)	DRSC06077	3.42e7	4.06e7	1.67e7	1.67e7	inactive
27	CG3515 (GeneID 33437)	DRSC00609	3.66e7	3.71e7	1.73e7	1.65e7	inactive
28	CG13895 (GeneID 38087)	DRSC08365	4.28e7	3.66e7	2.17e7	1.69e7	inactive
29	jagn (GeneID 40714)	DRSC12152	3.83e7	4.02e7	1.62e7	1.87e7	inactive
30	sick (GeneID 35277)	DRSC02090	6.23e7	2.79e8	2.99e7	1.51e7	inactive
31	sick (GeneID 35277)	DRSC02300	3.26e7	4.41e7	1.57e7	1.68e7	inactive
32	sick (GeneID 35277)	DRSC02301	2.71e7	4.17e7	1.40e7	1.60e7	inactive
33	sick (GeneID 35277)	DRSC02302	2.43e7	4.40e7	1.25e7	1.81e7	inactive
34	sick (GeneID 35277)	DRSC02303	2.09e7	4.22e7	1.01e7	1.84e7	inactive
35	sick (GeneID 35277)	DRSC02306	2.34e7	4.11e7	1.16e7	1.67e7	inactive
36	Cog8 (GeneID 34571)	DRSC02961	5.14e7		2.39e7		inactive
37	PIG-G (GeneID 35685)	DRSC06823	4.07e7		2.06e7		inactive
38	CAH14 (GeneID 37359)	DRSC04234	5.03e7	5.06e7	2.45e7	2.15e7	inactive
39	CAH14 (GeneID 37359)	DRSC22160	3.11e7	4.43e7	1.64e7	2.30e7	inactive
40	Uhg2 + snoRNA:Me18S-G1620 + snoRNA:U14:30Ea	DRSC01100	4.22e7	4.19e7	2.02e7	1.93e7	inactive
